Experimental data as given in PubChem BioAssay AID504444 (National Center for Advancing Translational Sciences (NCATS), 2011).
Screen size: about 360,000 compounds; about 7,500 (2.1%) were called active. This list was built around the results that the source calls inconclusive (neither active nor inactive); the mix of calls is not that of the screen. The call rests on the fitted dose curve; in most records, active means well fitted inhibition curve with a large enough effect; inconclusive means small, poorly fitted or top-dose-only effect, or effect the other way; inactive means flat fitted curve, though single readings scatter. A potency beside an inconclusive call is a rough fit, not a confirmed value.

Assay: Nrf2 qHTS screen for inhibitors; further: nearly all actives have a fitted effect of over 60% in size
Details: A549 ARE-Fluc reporter, luciferase luminescence, 18-24 h; series mostly up to 46 µM
Outline: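 Reporter: ARE-Fluc in A549. Exposure: 18-24 h, 37 °C, 5% CO2, 5% FBS OPTI-MEM. Readouts: fluorescent cytotoxicity (CellTiter-Fluor), then luminescent Nrf2 signal after BugLite.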
Potency means the concentration at half of the fitted maximal effect.

Row | SMILES | Potency
1 | COCCCN(C(=O)c1cccnc1SC)c1c(N)n(Cc2ccccc2)c(=O)[nH]c1=O | inconclusive: 20.6 µM [activator, single point]
2 | O=C(COc1ccccc1)Nc1ccc(N2CCN(C(=O)c3ccco3)CC2)cc1 | inactive
3 | COc1cccc(CNC(=O)Cc2c(C)c3c(cc(C)c4c(C)c(C)oc43)oc2=O)c1 | inactive
4 | Cc1ccccc1OCC(=O)Nc1ccc(N2CCN(C)CC2)c(Cl)c1 | inconclusive: 16.4 µM [activator, partial curve]
5 | O=C(NCc1ccncc1)c1ccccc1Nc1ccc(SC(F)F)cc1 | inconclusive: 8.2 µM [activator, partial curve]
6 | COc1cccc(-c2csc(NC(=O)C3CC3)n2)c1 | inconclusive: 6.51 µM [activator, partial curve, poor fit]
7 | COc1ccc(N(C(=O)c2snc(C(N)=O)c2N)C(C(=O)NC2CCCCC2)c2ccc(C)o2)cc1 (configuration not stated) | inconclusive: 29.1 µM [falling, single point]
8 | CCOc1cccc(C(=O)NC(=S)Nc2cccc(C)c2)c1 | inactive
9 | O=c1c2cc(-c3ccccc3)sc2ncn1-n1cccc1 | inconclusive: 5.17 µM [activator, partial curve, poor fit]
10 | COc1ccc([C@H]2CC(=O)C=C(c3ccc(C(F)(F)F)c(C(F)(F)F)c3)C2)cc1OC | inconclusive: 32.6 µM [activator, single point]
11 | Cc1ccc(-c2ccc(CCC(=O)O)n2Cc2ccco2)cc1 | inactive
12 | COc1cccc(N2CC(C(=O)NCc3n[nH]c(=O)c4ccccc34)CC2=O)c1 (configuration not stated) | inconclusive: 13 µM [falling, partial curve, poor fit]
13 | CN(C1CCCCC1)S(=O)(=O)c1ccc(NC(=O)Cn2nc(-c3ccc(F)cc3)ccc2=O)cc1 | inactive
14 | Cc1ccnc(NC(=O)c2ccc3c(c2)C(=O)N(CCC(C)C)C3=O)c1 | inconclusive: 6.51 µM [activator, single point]
15 | COc1ccc2c(c1)c1ncn(CCc3ccccc3)c(=O)c1n2C | inactive
16 | CCc1nc2c(c(=O)c3ccccc3n2C)c(=O)n1C1CCCCCC1 | inconclusive: 18.4 µM [falling, single point]
17 | Cc1ccc(-c2noc(C3CCCN(C(=O)c4ccc(Cl)cc4)C3)n2)o1 (configuration not stated) | inconclusive: 29.1 µM [falling, single point]
18 | Cc1[nH]nc(N=CC2=C(O)CC(c3ccco3)CC2=O)c1-c1ccc(Cl)cc1 (configuration not stated) | inconclusive: 8.2 µM [falling, partial curve, poor fit]
19 | CCNC(=O)NC(=O)C(C)Sc1nc2ccccc2n1CC(C)C (configuration not stated) | inconclusive: 13 µM [falling, partial curve, poor fit]
20 | COc1cc(CNc2cccc3[nH]c(C(F)(F)F)nc23)cc(OC)c1 | inconclusive: 29.1 µM [falling, single point]
21 | CCCCOc1ccc(C(=O)NCc2ccco2)cc1 | inconclusive: 0.231 µM [falling, full curve, poor fit]

Row | SMILES | Potency
22 | N/C(=N\OC(=O)c1ccc2ccccc2c1)c1ccncc1 | inconclusive: 10.3 µM [activator, partial curve, poor fit]
23 | C[C@H](CO)N1C[C@H](C)[C@@H](CN(C)C(=O)NC2CCCCC2)Oc2c(NC(=O)Nc3ccc4c(c3)OCO4)cccc2C1=O | inactive
24 | COc1cc(C2c3c(-c4c(C)cc(C)cc4O)n[nH]c3C(=O)N2Cc2ccco2)cc(OC)c1OC (configuration not stated) | inactive
25 | Cc1ccc(NC(=S)N(CCN2CCOCC2)Cc2cc3cc4c(cc3[nH]c2=O)OCO4)cc1 | inactive
26 | CCOC(=O)c1c(NC(=O)c2ccc(-n3cnnn3)cc2)sc2c1CCCC2 | inconclusive: 16.4 µM [falling, single point]
27 | CCOC(=O)C1CCN(C(=O)c2cnn(-c3ccc(F)cc3)c2-n2cccc2)CC1 | inconclusive: 7.31 µM [activator, partial curve]
28 | CCN(CC)S(=O)(=O)c1cccc(-c2nnc(SCC(=O)NC3CCCCCCC3)n2N)c1 | inconclusive: 29.1 µM [falling, partial curve, poor fit]
29 | CCOC(=O)c1[nH]c2c(c1Cc1ccccc1)C(=O)CC(c1ccc(C(C)(C)C)cc1)C2 (configuration not stated) | inconclusive: 23.1 µM [falling, partial curve, poor fit]
30 | COc1cc(/C=C/c2ccc3cccc(OC)c3n2)c(OC(C)=O)c([N+](=O)[O-])c1 | active: 25.9 µM
31 | Cc1cccc(NC(=O)COc2cccc3c2CCN(C)C3=O)c1C | inconclusive: 23.1 µM [falling, partial curve]
32 | CCOc1ccc(CN(C)C(=O)Cc2c[nH]c3ccccc23)cc1 | inconclusive: 20.6 µM [falling, partial curve, poor fit]
33 | COc1ccc2oc(=Nc3cc(F)ccc3F)c(C(N)=O)cc2c1 | inactive
34 | Cc1ccccc1OCC(=O)NCC(c1cccs1)N1CCOCC1 (configuration not stated) | inconclusive: 20.6 µM [falling, single point]
35 | Cc1c(Cc2ccccc2)sc(/N=C/c2ccc3ccccc3c2)c1C(N)=O | inconclusive: 25.9 µM [activator, single point]
36 | Cc1cc(-c2nnc(CCC(=O)N(CC3CCC3)CC3CCCO3)o2)no1 (configuration not stated) | inconclusive: 25.9 µM [activator, partial curve]
37 | CSc1nc2nc(C)cc(-c3ccccc3)n2n1 | inactive
38 | COC(=O)C1=C(C)N(CCc2ccc(OC)c(OC)c2)C(=O)/C1=C\N(C)C | inactive
39 | CCc1ccc(NC(=O)CSc2nnc(CC)c(CC)n2)cc1 | inconclusive: 18.4 µM [activator, single point]
40 | CCOc1ccccc1NC(=S)NC(=O)CCCOc1ccc(Cl)cc1Cl | inconclusive: 29.1 µM [falling, single point]
41 | Cc1ccc(NC(=O)c2csc3c2CCCC3)cc1 | inconclusive: 7.31 µM [activator, partial curve]
42 | CCN(CC)CCCNC(=O)c1sc2nc3n(c(=O)c2c1C)CCCCC3 | inconclusive: 29.1 µM [activator, single point]

An excerpt of these results, as tab-separated lines:
Row	SMILES	Potency
23	C[C@H](CO)N1C[C@H](C)[C@@H](CN(C)C(=O)NC2CCCCC2)Oc2c(NC(=O)Nc3ccc4c(c3)OCO4)cccc2C1=O	inactive
24	COc1cc(C2c3c(-c4c(C)cc(C)cc4O)n[nH]c3C(=O)N2Cc2ccco2)cc(OC)c1OC (configuration not stated)	inactive
